PubChem BioAssay AID540276 (National Center for Advancing Translational Sciences (NCATS), 2011)
In all, about 300,000 compounds went through this assay and about 5,400 (1.8%) were called active. Inconclusive means that the source gave no clear call. Such entries were picked first, then a sample of the others. The call rests on the fitted dose curve; tested in HEK293 cells. Potencies beside an inconclusive call are fits to weak or partial responses and may not hold up.

Assay: qHTS for inhibitors of binding or entry into cells for Marburg Virus
Details: Marburg virus pseudotyped entry inhibition, cell reporter; activity change, negative = inhibition: at 37.8 µM (top of the series) unless noted
On the % scale 0 is the no-effect control and ±100 the full control effect; potency means the concentration at half of the fitted maximal effect.

| Structure (SMILES) | Potency | activity change, negative = inhibition |
| --- | --- | --- |
| CN(C)c1ccc(C(=O)Nc2ccc(S(=O)(=O)Nc3nccs3)cc2)cc1 | inconclusive: 14.1 µM [activator, single point] |  |
| CCOC(=O)c1cc2c(=O)[nH]c(C(Cl)(Cl)Cl)nc2o1 | inconclusive: 11.2 µM [activator, partial curve, poor fit] |  |
| Cc1ncc(CO)c(/C=N/Nc2ccc(C(F)(F)F)cn2)c1O | active: 3.98 µM |  |
| Cn1c(=O)[nH]c(=O)c2c1nc(N1CCCCCC1)n2CCCSc1nnnn1-c1ccccc1 |  | inactive: -26.2% |
| O=C(COC(=O)c1ccc2c(c1)OCO2)NC1CCCCC1 | inconclusive: 35.5 µM [activator, single point] |  |
| CCn1cc(/C=C/C(=O)Nc2ccc(C)cc2Br)cn1 |  | inactive: 10.8% |
| Cc1ccc(SCC(=O)NNC(=O)c2ccc(S(C)(=O)=O)cc2)cc1 | inconclusive: 35.5 µM [activator, single point] |  |
| COc1ccc(Cl)cc1NS(=O)(=O)c1cccc(C(=O)NC2CC2)c1 |  | inactive: -26.1% |
| Cc1cc(C)c(S(=O)(=O)Nc2ccc3c4c(cccc24)CC3)c(C)c1 | inconclusive: 8.91 µM [inhibitor, partial curve, poor fit] |  |
| COc1ccccc1NC(=O)C1=C(C)Nc2nnnn2C1c1ccc(C(F)(F)F)cc1 (stereo not given) |  | inactive: -15.7% [at 46.1 µM] |
| O=C(NNC(=S)NC(=O)c1ccccc1Cl)c1cccc([N+](=O)[O-])c1 |  | inactive: 9.24% |
| CC1CCC(C(=O)NC(C(=O)N2CCN(c3ccccn3)CC2)C(C)C)CC1 (stereo not given) |  | inactive: -1.44% |
| Cc1ccc(NC(=O)CNC(=O)c2cccc(Cl)c2)nc1 |  | inactive: 14.2% |
| CSc1cccc(N2C(=O)C3CCCN3C2=S)c1 (stereo not given) |  | inactive: 1.16% [at 46.1 µM] |
| Cc1ccc(Oc2c(CO)c(-c3ccccc3)nn2C)cc1 | inconclusive: 10 µM [inhibitor, partial curve] |  |
| COc1ccc(NC(=O)COC(=O)C2CC(=O)N(c3ccc(C)cc3)C2)cc1 (stereo not given) | inconclusive: 5.62 µM [activator, single point] |  |
| Cc1ccc(C(C)C)c(OCC(=O)NNC(=O)Nc2ccccc2)c1 | inconclusive: 6.31 µM [inhibitor, partial curve, poor fit] |  |
| CCc1cccc(NC(=O)CCNS(=O)(=O)c2cccc3nonc23)c1 | inconclusive: 35.5 µM [inhibitor, single point] |  |
| O=C(C1CCCN1S(=O)(=O)c1cccc2cccnc12)N1CCn2c1nc1ccccc12 (stereo not given) |  | inactive: -9.85% |
| Cc1ccc2nc(NC(=O)CSc3nc4c(c(=O)n3C)SC(C)C4)sc2c1 (stereo not given) | inconclusive: 35.5 µM [inhibitor, partial curve, poor fit] |  |
| CC(C)n1cnc2cc(NCc3nc4ccccc4n3C)ccc21 | inconclusive: 9.2 µM [inhibitor, single point] |  |
| O=C1CCCc2nn(-c3ccccc3)c(-c3ccncc3)c21 | inconclusive: 3.55 µM [inhibitor, partial curve, poor fit] |  |
| CNC(=S)N(CCc1c(C)[nH]c2ccc(OC)cc12)Cc1cc(OC)c(OC)c(OC)c1 | inconclusive: 8.2 µM [inhibitor, partial curve, poor fit] |  |

| Structure (SMILES) | Potency | activity change, negative = inhibition |
| --- | --- | --- |
| CCc1ccc(/C=C2\SC(=S)N(CCC(=O)NCCCN3CCOCC3)C2=O)cc1 | inconclusive: 17.8 µM [inhibitor, partial curve, poor fit] |  |
| CCN(CC)CCNC(=O)C(=O)Nc1ccc2c(c1)N(S(=O)(=O)c1cccs1)CCC2 | inconclusive: 17.8 µM [inhibitor, partial curve, poor fit] |  |
| c1ccc(COc2ccc(OCCCNC3CCCC3)cc2)cc1 | inconclusive: 22.4 µM [inhibitor, single point] |  |
| O=C(OCc1nc2ccc(Cl)cc2n1CCO)c1ccccc1 |  | inactive: 10.5% |
| CN(CC(=O)NC(=O)NCc1ccccc1)CC(=O)Nc1ccc(Cl)c(C(F)(F)F)c1 | inconclusive: 1.41 µM [inhibitor, partial curve, poor fit] |  |
| O=c1c2ccccc2ncn1-c1cccc(Cl)c1 | inconclusive: 35.5 µM [activator, single point] |  |
| Cc1cc(NC(=S)N(CCCN2CCOCC2)Cc2ccco2)ccc1Cl | inconclusive: 1.26 µM [inhibitor, single point] |  |
| Nn1cnnc1N/N=C/c1cc(Br)cc(Br)c1O | inconclusive: 35.5 µM [inhibitor, partial curve, poor fit] |  |
| Cc1c(C(=O)NC(=S)Nc2ccc(N3CCOCC3)cc2)cccc1[N+](=O)[O-] |  | inactive: 4.68% [at 46.1 µM] |
| COC(=O)C1=C(C)N(C)C(=S)NC1c1ccccc1 (stereo not given) | inconclusive: 12.6 µM [activator, partial curve, poor fit] |  |
| COc1cc(S(=O)(=O)N2CCOCC2)ccc1NC(=O)COC(=O)c1cc(OC)c(OC)c(OC)c1 |  | inactive: -25.5% |
| CCOC(=O)CSc1nc2c(c(=O)n1-c1ccc(OCC)cc1)SCC2 |  | inactive: -0.76% |
| CCc1ccc2c(c1)C(=O)C(=O)N2CC(=O)Nc1ccc(NC(=O)c2ccccn2)cc1 |  | inactive: -24% [at 46.1 µM] |
| COc1ccc(CNc2ncnc3sccc23)cc1 | inconclusive: 8.91 µM [inhibitor, partial curve, poor fit] |  |
| CSc1nc(N)c2c(n1)N(C)C=NS2(=O)=O |  | inactive: -2.91% [at 46.1 µM] |
| COc1ccccc1CNC(=S)NC1CCCC1 | inconclusive: 0.316 µM [inhibitor, partial curve, poor fit] |  |
| CCOC(=O)N1CCN(CC(=O)Nc2ccc([N+](=O)[O-])cc2C(=O)Nc2ccccc2F)CC1 |  | inactive: -0.0703% |
| O=C(Nc1cccc2ccccc12)OCc1ccccc1 | inconclusive: 5.62 µM [activator, single point] |  |
| Cc1cc(Oc2ccccc2)nc(SCC(=O)Nc2ccc(Cl)c(Cl)c2)n1 | inconclusive: 29.1 µM [inhibitor, single point] |  |
| COc1ccc(N(CC(=O)NCc2ccco2)S(=O)(=O)c2ccc(C)cc2)cc1OC | inconclusive: 31.6 µM [activator, single point] |  |
| N#Cc1c(-c2ccc(Cl)cc2)c(-c2ccc(Cl)cc2)nn(CCOC(=O)CCC(=O)O)c1=O |  | inactive: -14.6% |
| COc1cccc(CNC(=O)COc2cc(=O)n(C)c3ccccc23)c1 |  | inactive: 1.83% [at 46.1 µM] |

Shown as labelled records: part of the list above.
O=C(OCc1nc2ccc(Cl)cc2n1CCO)c1ccccc1
  activity change, negative = inhibition: inactive: 10.5%
Nn1cnnc1N/N=C/c1cc(Br)cc(Br)c1O
  Potency: inconclusive: 35.5 µM [inhibitor, partial curve, poor fit]
CCc1ccc2c(c1)C(=O)C(=O)N2CC(=O)Nc1ccc(NC(=O)c2ccccn2)cc1
  activity change, negative = inhibition: inactive: -24% [at 46.1 µM]
